Data reported in PubChem BioAssay AID1439 (NMMLSC, 2008).
The campaign covered roughly 220,000 compounds. About 770 (0.35%) were called active. This list was built around the results that the source calls inconclusive (neither active nor inactive); the mix of calls is not that of the screen. No stated cut-off is given here; in the data, active means binding response below about 49% or above about 150%; inconclusive means no clear call, values can overlap the other calls; inactive means in between.

By UniProt entry, the sequences of proteins in these tests, tags left out.
UniProt P09471, whole entry, looked up: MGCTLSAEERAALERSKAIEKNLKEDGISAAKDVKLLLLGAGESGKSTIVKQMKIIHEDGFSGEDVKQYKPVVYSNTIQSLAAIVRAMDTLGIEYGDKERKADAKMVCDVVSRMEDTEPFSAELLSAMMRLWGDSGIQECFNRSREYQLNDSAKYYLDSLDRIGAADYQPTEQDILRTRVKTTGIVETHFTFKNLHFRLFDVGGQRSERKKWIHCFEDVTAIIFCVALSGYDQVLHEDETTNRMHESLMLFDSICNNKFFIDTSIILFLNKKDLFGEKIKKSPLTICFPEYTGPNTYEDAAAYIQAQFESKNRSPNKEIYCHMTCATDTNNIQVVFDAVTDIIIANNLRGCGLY

molecular target: Guanine nucleotide-binding protein G(o) subunit alpha (Homo sapiens) (UniProt P09471); assay: RGS7-Galphao binding modulators, primary screen, biochemical, multiplexed bead flow cytometry (AID 1439); conditions: at 10 µM, actives lie on both sides;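 further: fluorescent Galphao held in activated GDP-AlF4 state binding bead-coupled RGS7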

| SMILES | binding response (% of control) |
| --- | --- |
| COc1cccc(OC)c1CN(C)C(=O)c1cnccc1C(F)(F)F | inconclusive: 75.2% |
| Cc1ccc(C(=O)Nc2ccc(C)c(S(=O)(=O)N(C)C)c2)s1 | inactive: 99.1% |
| C/C(=N\NC(=O)c1sccc1-n1cccc1)c1cccs1 | inactive: 95.2% |
| S=c1[nH]nc(-c2ccco2)n1/N=C/c1cccc(Cl)c1 | inconclusive: 114% |
| CN(C)C(=S)N=Nc1[nH]c2ccccc2c1O | inconclusive: 161% |
| CC1=CC(C)[C@H](/C=N/n2c(=O)[nH]c3c([nH]c4ccc(Br)cc43)c2=O)C(C)C1 (some centres not stated) | inactive: 91% |
| CCc1ccc2c(CSc3nnnn3C)cc(=O)oc2c1 | inconclusive: 45.5% |
| COC(=O)C(O)(NC(=O)c1ccncc1)C(F)(F)F (configuration not stated) | inconclusive: 137% |
| Cc1ccccc1NC(=S)N/N=C1\CC(C)(C)Oc2ccc(O)cc21 | inconclusive: 113% |
| Cc1cccc(C(=O)Nc2nnc(SCC(=O)Nc3ccc4c(c3)oc3ccccc34)s2)c1 | inactive: 109% |
| CC(=O)CC(=O)Nc1ncc(C(F)(F)F)cc1Cl | inconclusive: 102% |
| O=C(CSc1n[nH]c(=O)[nH]c1=O)N1CCCCCC1 | inconclusive: 108% |
| Cc1cccc(-n2nnnc2SCC(=O)NCC2CCCO2)c1 (configuration not stated) | inconclusive: 94.2% |
| COC(=O)c1sc(NC(=O)CSc2n[nH]c(N)n2)c(C(=O)OC)c1C | inconclusive: 81.3% |
| C/C(N)=C(/C#N)C(=O)COC(=O)CNC(=O)c1ccc(Cl)cc1Cl | inconclusive: 98.3% |
| N/C(=N\OCc1ccc([N+](=O)[O-])cc1)c1ccncc1 | inconclusive: 97.5% |
| COc1ccc(C(=O)Nc2ccccc2C(=O)NC(Cc2c[nH]c3ccccc23)C(=O)O)cc1 (configuration not stated) | inactive: 101% |
| Cc1cc(-c2ccccc2)c2c(=O)[nH][nH]c2n1 | inactive: 101% |
| Cc1ccc(-c2c[n+]3c(n2-c2ccccc2)SCC3)cc1 | inconclusive: 105% |
| O=[N+]([O-])c1ccc(/C=N/Nc2nc(N3CCOCC3)nc(N3CCOCC3)n2)cc1 | inactive: 99.5% |
| Cc1ccc(C(=O)CNc2ccc(Cl)cc2)cc1 | inactive: 107% |
| Nc1nonc1/C(=N/O)N1CCN(CCO)CC1 | inactive: 97.6% |

| SMILES | binding response (% of control) |
| --- | --- |
| CCN(CC(=O)NCc1ccc(Cl)cc1)C(=O)/C=C/c1cccs1 | inconclusive: 100% |
| Cc1cc(C(C)(C)C)cc(C)c1Cn1c2[n+](c3ccc(C(F)(F)F)cc31)CCCCC2 | inactive: 102% |
| Cc1ccc(C)c(NC(=O)/C(C#N)=C/c2ccc(Sc3nncn3C)c([N+](=O)[O-])c2)c1 | inactive: 101% |
| CC(C)c1cc(C(=O)O)c2ccccc2n1 | inconclusive: 93.3% |
| O=C(COC(=O)c1cccc([N+](=O)[O-])c1)NCc1cccs1 | inconclusive: 102% |
| CCCCCC1CCC(c2n[nH]c(=S)n2C)CC1 (configuration not stated) | inconclusive: 76.8% |
| CC(C)C(=O)NNC(=O)c1csc(CS(=O)(=O)c2ccc(Cl)cc2)n1 | inconclusive: 103% |
| CSc1n[nH]c2nc3c(c(=O)n12)C1(CCCCC1)Cc1ccccc1-3 | inconclusive: 91.2% |
| CCOC(=O)C(NC(=O)c1ccccc1)=C(C)C | inactive: 102% |
| C/C(=N\NC(=O)Cc1cccn1C)c1ccc2ccccc2c1 | active: 35.8% |
| CC(C)CCNC(=O)c1ccc2c(c1)N(Cc1ccccc1)C(=O)CS2=O (configuration not stated) | inactive: 99.5% |
| Cn1cnc2c(N/N=C/c3cccs3)ncnc21 | inconclusive: 458% |
| CCN(C(=O)c1ccc(NC(C)=O)cc1)c1ccccc1 | inactive: 88% |
| O=C(CSc1nc2ccccc2n1CC(=O)N1CCCCC1)N1CCCCC1 | inconclusive: 118% |
| COc1ccc(-c2nnc(NC(=O)c3cccs3)s2)c(OC)c1 | inconclusive: 89.5% |
| COc1ccc(Nc2nc(-c3ccccc3)c(C(=O)Nc3cccnc3)s2)cc1 | inconclusive: 88.3% |
| CC12CCC(C(=O)N3CCCCC3)([C@H](Br)C1=O)C2(C)C (some centres not stated) | inconclusive: 115% |
| COc1ccccc1OS(=O)(=O)c1ccc(NC(C)=O)cc1 | inconclusive: 98.3% |
| Cc1onc(-c2c(Cl)cccc2Cl)c1COC(=O)c1ccc(Cl)cc1[N+](=O)[O-] | inconclusive: 85.2% |
| O=[N+]([O-])c1cccc(-c2noc(-c3cccs3)n2)c1 | inconclusive: 27.2% |
| CCOC(=O)c1[nH]ncc1[C@@H]1C[C@H]2CN(Cc3cccc(Cl)c3)C(=O)[C@]23CCCN13 | inconclusive: 76.6% |
| c1ccc(Nc2nc(CSc3ncn[nH]3)cs2)cc1 | inconclusive: 90.3% |

| SMILES | binding response (% of control) |
| --- | --- |
| CCN(CC)CCNC(=O)Cn1ncc2ccccc2c1=O | inconclusive: 91.7% |
| CSc1nsc(SC)c1CO | inconclusive: 120% |
| O=C(N/N=C/c1cccc([N+](=O)[O-])c1)c1nc2ccccc2c(=O)[nH]1 | inconclusive: 694% |
| COc1cccc(C(=O)OCC(=O)Nc2cc(C)c(C)cc2[N+](=O)[O-])c1 | inactive: 104% |
| CC(O)c1nc2ccccc2n1CC(=O)N1CCN(c2ccccc2)CC1 (configuration not stated) | inactive: 103% |
| CCc1ccc(N2CN(Cc3ccco3)CNC2=S)cc1 | inconclusive: 105% |
| O=S1(=O)[C@H]2CC3O[C@]2(C[C@@H]3c2ccc(F)cc2)CN1Cc1ccc(Cl)cc1 | inconclusive: 76.2% |
| CSc1nc2ccc(NS(=O)(=O)c3ccc([N+](=O)[O-])cc3)cc2s1 | inconclusive: 45.8% |
| Cc1ccc(N(NC(=O)C(O)(c2ccccc2)c2ccccc2)C(=O)CCl)cc1 | inactive: 91.8% |
| CCN(CC)S(=O)(=O)c1ccc(/C=C/C(=O)N(c2ccccn2)C2CCCCC2)cc1 | inconclusive: 109% |
| O=C(/C=C/c1ccco1)Nc1ccc(CN2CCOCC2)cc1 | inconclusive: 56.3% |
| COc1ccc(C2CC(c3ccccc3)=NN2C(=O)COC(=O)c2nc3nccc(C)n3n2)cc1 (configuration not stated) | inactive: 97.5% |
| CCOC(=O)CN1C(=O)N(CC)C(C)=C(C(=O)OC)[C@@H]1c1ccccc1 | inconclusive: 127% |
| CCNC(=O)COC(=O)c1ccc(-c2nc3ccccc3s2)s1 | inconclusive: 102% |
| CC(=O)NCC(=O)OCC(=O)N1c2ccccc2Sc2ccccc21 | inconclusive: 88.2% |
| CCN(CC(=O)Nc1ccc2c(c1)OCCO2)C(=O)/C=C/c1ccc(F)cc1 | inactive: 101% |
| Oc1ccc(-c2nnc(Nc3ccccc3)c3ccccc23)cc1 | inconclusive: 105% |
| CC(C)(C)CC(=O)NCc1cccs1 | inconclusive: 65.6% |
| CCn1c(C)cc(/C=C2\NC(=O)N(CC(=O)Nc3ccc(F)cc3)C2=O)c1C | inconclusive: 104% |
| O=C(NCCC1=CCCCC1)C1CCC(CNc2c(N3CCCCC3)c(=O)c2=O)CC1 (configuration not stated) | inconclusive: 123% |
| Cc1ccc2[nH]cc(CCNC(=O)/C=C/c3ccco3)c2c1 | inconclusive: 181% |
| c1cc2c(cc1Nc1nc(-c3ccc4c(c3)OCO4)cs1)OCCO2 | inactive: 93% |

| SMILES | binding response (% of control) |
| --- | --- |
| CC(CN1C(C)CCCC1C)OC(=O)c1ccc(Cl)cc1 (configuration not stated) | inactive: 97.7% |
| CCc1c(O)nc(SCC(=O)Nc2nc3ccccc3s2)n(C2CCCCC2)c1=O | inconclusive: 103% |
| O=c1c2c3c(sc2nc2n1CCCCC2)C(O)CCC3 (configuration not stated) | inactive: 90.6% |
| COC(=O)c1sc(SC)nc1N | inconclusive: 90.3% |
| COC(=O)c1c(NC(=O)C2CC2)sc(C(=O)Nc2ccccc2)c1C | inconclusive: 103% |
| Nc1ccccc1C(=O)NC1CCCCNC1=O (configuration not stated) | inconclusive: -55.5% |
| CCCSc1ccc(C(=O)Nc2ccc(F)cc2F)cn1 | inconclusive: 105% |
| CCOC(=O)C1=C(N)N(c2cc(S(=O)(=O)N3CCOCC3)ccc2Cl)C(=O)C1 | inactive: 99.9% |
| COc1ccc(/C=N/NC(=O)CN2CCSCC2)c(OC)c1 | inactive: 97.5% |
| Cc1ccc(Nc2nc(N)c(C#N)c(CC#N)c2C#N)cc1 | inconclusive: 87.5% |
| O=S(=O)(Nc1ccc(N2CCCCC2)cc1)c1ccc(F)cc1F | inconclusive: 113% |
| CC(Nc1cc(N2CCN(S(=O)(=O)N(C)C)CC2)ccc1[N+](=O)[O-])c1ccccc1 (configuration not stated) | inconclusive: 96% |
| COC(=O)c1cc2c(N)c(C(=O)c3ccccc3)sc2nc1C(OC)OC | inconclusive: 84.8% |
| CC1=NN(c2ccccc2)C(=O)C1/C=C1/NC(=S)NC1=O (configuration not stated) | inconclusive: 95.4% |
| Cc1c(C(=O)NCc2ccc3c(c2)OCO3)oc2ccccc12 | inactive: 88.5% |
| Cc1nc(C)c(-c2nnc(-c3ccccc3Cl)o2)cc1C(=O)NN | inconclusive: 95.4% |
| COc1ccc(NC(=S)Nc2ccc(OC(F)F)cc2)cn1 | inconclusive: 104% |
| O=C(c1ccncc1)N1CCN(C2CCC(c3ccccc3)CC2)CC1 (configuration not stated) | inconclusive: 104% |
| COc1ccc(C2C3=C(CCCC3=O)NC3=C2C(=O)c2ccccc23)cc1 (configuration not stated) | inconclusive: 94.4% |
| O=[N+]([O-])c1ccccc1/C=C/C=N/n1c(-c2ccccc2F)n[nH]c1=S | inconclusive: 92.4% |
| COc1ccc(-c2n[nH]c(=S)n2N)c(OC)c1 | inconclusive: 81.2% |
| CC(C)(C)NC(=O)C1CCN(S(=O)(=O)c2cccc(C(F)(F)F)c2)CC1 | inconclusive: 110% |

| SMILES | binding response (% of control) |
| --- | --- |
| Fc1ccc(-c2nnc(Cc3ccc(Cl)cc3)o2)cc1 | inconclusive: 103% |
| O=C(N/N=C/c1cccnc1)c1ccco1 | inconclusive: 114% |
| CCOC(=O)C(=CNc1ccc(C#N)cc1)C(=O)OCC | inconclusive: 112% |
| O=c1[nH][nH]c(C(F)(F)F)c1C=NCc1cccs1 | inconclusive: 81.5% |
| O=C(NC(=S)NNC(=O)[C@H]1C[C@@H]1c1ccccc1)c1cccc(F)c1 | inconclusive: -656% |
| N#CCCn1cc(C(=O)Nc2ccc(C(=O)O)cc2)c(-c2cc3ccccc3o2)n1 | inconclusive: 83.1% |
| C=C(C)CSc1nnc([C@@H]2CCCN2)o1 | inconclusive: 98.9% |
| CN(C)CC(=O)c1c(N)n(Cc2ccccc2)c(=O)n(C)c1=O | inconclusive: 98% |
| COc1ccc(C(=O)C2CCCN(Cc3c(C)[nH]c4ccccc34)C2)c(OC)c1 (configuration not stated) | inactive: 99.7% |
| CC1=CC(=C(C#N)c2nc3ccccc3s2)C=C(C)N1CC1CCCO1 (configuration not stated) | inconclusive: 111% |
| Cc1ccc(CN=c2c([N+](=O)[O-])nn(-c3cccc(C)c3)n2O)cc1 | inconclusive: 96.6% |
| COc1nc(OC)nc(N2CCC(NC(=O)C(Cc3cccc(OC)c3OC)NC(C)=O)CC2)n1 (configuration not stated) | inconclusive: 110% |
| NC(=O)C1CCN(C2=C(NS(=O)(=O)c3ccc(Cl)cc3)C(=O)c3ccccc3C2=O)CC1 | inconclusive: 124% |
| COc1cccc(C(=O)N2N=C(c3ccccn3)CC2(O)C(F)(F)F)c1 (configuration not stated) | inconclusive: 113% |
| COc1cc(NC(=S)NC(=O)c2cccs2)ccc1NC(=O)C(C)C | inconclusive: 121% |
| Cc1ccc(NNC(=O)c2c(F)cccc2Cl)cc1C | inconclusive: 117% |
| CCOc1cc(C=O)cc(Cl)c1OCC(N)=O | inactive: 96.3% |
| Cc1ccc(C(=O)NC(C)c2nc3ccccc3n2CC(=O)Nc2c(C)cc(C)cc2C)cc1 (configuration not stated) | inconclusive: 104% |
| Cn1c(Cc2ccc3c(c2)OCO3)nnc1SCC(=O)N1CCc2ccccc2C1 | inactive: 99.7% |

A different layout for 18 compounds above.
SMILES,binding response (% of control)
Cc1ccc2[nH]cc(CCNC(=O)/C=C/c3ccco3)c2c1,inconclusive: 181%
c1cc2c(cc1Nc1nc(-c3ccc4c(c3)OCO4)cs1)OCCO2,inactive: 93%
CC(CN1C(C)CCCC1C)OC(=O)c1ccc(Cl)cc1 (configuration not stated),inactive: 97.7%
CCc1c(O)nc(SCC(=O)Nc2nc3ccccc3s2)n(C2CCCCC2)c1=O,inconclusive: 103%
O=c1c2c3c(sc2nc2n1CCCCC2)C(O)CCC3 (configuration not stated),inactive: 90.6%
COC(=O)c1sc(SC)nc1N,inconclusive: 90.3%
COC(=O)c1c(NC(=O)C2CC2)sc(C(=O)Nc2ccccc2)c1C,inconclusive: 103%
Nc1ccccc1C(=O)NC1CCCCNC1=O (configuration not stated),inconclusive: -55.5%
CCCSc1ccc(C(=O)Nc2ccc(F)cc2F)cn1,inconclusive: 105%
CCOC(=O)C1=C(N)N(c2cc(S(=O)(=O)N3CCOCC3)ccc2Cl)C(=O)C1,inactive: 99.9%
COc1ccc(/C=N/NC(=O)CN2CCSCC2)c(OC)c1,inactive: 97.5%
Cc1ccc(Nc2nc(N)c(C#N)c(CC#N)c2C#N)cc1,inconclusive: 87.5%
O=S(=O)(Nc1ccc(N2CCCCC2)cc1)c1ccc(F)cc1F,inconclusive: 113%
CC(Nc1cc(N2CCN(S(=O)(=O)N(C)C)CC2)ccc1[N+](=O)[O-])c1ccccc1 (configuration not stated),inconclusive: 96%
COC(=O)c1cc2c(N)c(C(=O)c3ccccc3)sc2nc1C(OC)OC,inconclusive: 84.8%
CC1=NN(c2ccccc2)C(=O)C1/C=C1/NC(=S)NC1=O (configuration not stated),inconclusive: 95.4%
Cc1c(C(=O)NCc2ccc3c(c2)OCO3)oc2ccccc12,inactive: 88.5%
Cc1nc(C)c(-c2nnc(-c3ccccc3Cl)o2)cc1C(=O)NN,inconclusive: 95.4%
